From article PMC6039025
These are yes or no findings as the source states them, for the method shown. Some entries that bind do so weakly or less than the wild type. Where a sequence is shown, tags or fusion partners need not be part of it.

B1: Smc2 (protein, UniProt P38989 1-1170)
chain: MKVEELIIDGFKSYATRTVITDWDPQFNAITGLNGSGKSNILDAICFVLGIASMSTVRASSLQDLIYKRGQAGVTKASVTIVFDNTDKSNSPIGFTNSPQISVTRQVVLGGTSKYLINGHRAPQQSVLQLFQSVQLNINNPNFLIMQGKITKVLNMKPSEILSLIEEAAGTKMFEDRREKAERTMSKKETKLQENRTLLTEEIEPKLEKLRNEKRMFLEFQSTQTDLEKTERIVVSYEYYNIKHKHTSIRETLENGETRMKMLNEFVKKTSEEIDSLNEDVEEIKLQKEKELHKEGTISKLENKENGLLNEISRLKTSLSIKVENLNDTTEKSKALESEIASSSAKLIEKKSAYANTEKDYKMVQEQLSKQRDLYKRKEELVSTLTTGISSTGAADGGYNAQLAKAKTELNEVSLAIKKSSMKMELLKKELLTIEPKLKEATKDNELNVKHVKQCQETCDKLRARLVEYGFDPSRIKDLKQREDKLKSHYYQTCKNSEYLKRRVTNLEFNYTKPYPNFEASFVHGVVGQLFQIDNDNIRYATALQTCAGGRLFNVVVQDSQTATQLLERGRLRKRVTIIPLDKIYTRPISSQVLDLAKKIAPGKVELAINLIRFDESITKAMEFIFGNSLICEDPETAKKITFHPKIRARSITLQGDVYDPEGTLSGGSRNTSESLLVDIQKYNQIQKQIETIQADLNHVTEELQTQYATSQKTKTIQSDLNLSLHKLDLAKRNLDANPSSQIIARNEEILRDIGECENEIKTKQMSLKKCQEEVSTIEKDMKEYDSDKGSKLNELKKELKLLAKELEEQESESERKYDLFQNLELETEQLSSELDSNKTLLHNHLKSIESLKLENSDLEGKIRGVEDDLVTVQTELNEEKKRLMDIDDELNELETLIKKKQDEKKSSELELQKLVHDLNKYKSNTNNMEKIIEDLRQKHEFLEDFDLVRNIVKQNEGIDLDTYRERSKQLNEKFQELRKKVNPNIMNMIENVEKKEAALKTMIKTIEKDKMKIQETISKLNEYKRETLVKTWEKVTLDFGNIFADLLPNSFAKLVPCEGKDVTQGLEVKVKLGNIWKESLIELSGGQRSLIALSLIMALLQFRPAPMYILDEVDAALDLSHTQNIGHLIKTRFKGSQFIVVSLKEGMFANANRVFRTRFQDGTSVVSIM
B2: Brn1-3xHA-12xHIS (protein, UniProt P38170 1-754)
chain: MTTQLRYENNDDDERVEYNLFTNRSTMMANFEEWIKMATDNKINSRNSWNFALIDYFYDLDVLKDGENNINFQKASATLDGCIKIYSSRVDSVTTETGKLLSGLAQRKTNGASNGDDSNGGNGEGLGGDSDEANIEIDPLTGMPISNDPDVNNTRRRVYNRVLETTLVEFETIKMKELDQELIIDPLFKKALVDFDEGGAKSLLLNTLNIDNTARVIFDASIKDTQNVGQGKLQRKEEELIERDSLVDDENEPSQSLISTRNDSTVNDSVISAPSMEDEILSLGMDFIKFDQIAVCEISGSIEQLRNVVEDINQAKDFIENVNNRFDNFLTEEELQAAVPDNAEDDSDGFDMGMQQELCYPDENHDNTSHDEQDDDNVNSTTGSIFEKDLMAYFDENLNRNWRGREHWKVRNFKKANLVNKESDLLEETRTTIGDTTDKNTTDDKSMDTKKKHKQKKVLEIDFFKTDDSFEDKVFASKGRTKIDMPIKNRKNDTHYLLPDDFHFSTDRITRLFIKPGQKMSLFSHRKHTRGDVSSGLFEKSTVSANHSNNDIPTIADEHFWADNYERKEQEEKEKEQSKEVGDVVGGALDNPFEDDMDGVDFNQAFEGTDDNEEASVKLDLQDDEDHKFPIRENKVTYSRVSKKVDVRRLKKNVWRSINNLIQEHDSRKNREQSSNDSETHTEDESTKELKFSDIIQGISKMYSDDTLKDISTSFCFICLLHLANEHGLQITHTENYNDLIVNYEDLATTQAAS
B3: Ycs4 (protein, UniProt Q06156 1-1176)
chain: MSGFSLSEYLTKFQTTDRESYPRLQDPSRELNVIIDQLAVSPEQIDASPDSLEALIDLCHDFPHLTPKLQTQLSYLISSSLSNLSKDIKANLSSNVNFTEIGGLIPQWKRHLEEYGYLIQVLLTFLQDELHKVSSQSTNLNRSAKNSKNDSANVELFKRDCNQMENLLESITKLLEINLSKIFQTTPEKDLFIGLFTRPLFVLLEIEPVTKVSSLKMFIQRILAMCVKNHGQSSSIQSSLMTNLTYFLHLSVFNAELLKLLNDEYNYPQLTEDILKEISTRVFNAKDTTGPKAISNFLIKLSELSPGIMLRQMNLVITLLNNSSITLRCSVVEACGNIVAELAQDPQTMEHYKQQIAVLIELLEERFQDSNPYVRTKAIQGCSKICDLSSKFNKSKAKFTSLAVRSLQDRSSLVRRNSVKLLSKLLLKHPFKAIHGSQLRLSEWEEYLKGSESQLNSTLKKVESQETLNDTIERSLIEEEVEQDEGQCRTELEGSFNKSAELSRIENEVENINATNTSVLMKLKLMIVYYKDAISFIKEIHKSIELISNLLFSKNRNEVLESMDFLVLADAFDIELSEFGIKKMLHLVWMKGTNDEGTSISVHLIECYKQLFLTAPDSCNMQEKAAHIAKNLINLSIGASIADLASLEQLLGMMYEQKLIDQHVINILWAIYNSASKASMQKEQNVNNRDSEKGFSKEQIHGSIIILGMLSLADNEIALKGLESLLNIGLGAVGLKDLTLCRYSCLALERMVPKRSTIITKAINQELEDVAVKKLYAIIINYTKDNEYYPMCEQALSALFTISSKPDILATDLIREKTMMTFGKPEEEDSILSLEQSSRVVSLSQLLFIVGQVAIKTLVYLEKCEAEFKKRKIEAETRNGKVKNQGADVTNTTQDNGGDKELEMIGGTNEDDFTDAIQFVKENELLFGEKSILGKFCPIVEEIVSNSSRFSDPMLQRTATLCLEKLMCLSSKYCEKSLPLLITVMEKSPDPTIRSNAVLGLGDMAVCFNNLVDENTDYLYRRLHDENLMVQRTCLMTVTFLILAGQVKVKGQLGEMAKCLDNPDQGISDMCRLFFTELASKDNAIYNGFIDIFSNLSSDDLLGKESFKKIIKFLLTFIDKERHQKQLNEKLVGRLRKCETQKQWDDIAFVLNNLPYKNEDVTALLEQGFKVVSAKE
B4: Ycg1-3xFLAG-9xHIS (protein, UniProt Q06680 1-1035)
chain: MQDPDGIDINTKIFNSVAEVFQKAQGSYAGHRKHIAVLKKIQSKAVEQGYEDAFNFWFDKLVTKILPLKKNEIIGDRIVKLVAAFIASLERELILAKKQNYKLTNDEEGIFSRFVDQFIRHVLRGVESPDKNVRFRVLQLLAVIMDNIGEIDESLFNLLILSLNKRIYDREPTVRIQAVFCLTKFQDEEQTEHLTELSDNEENFEATRTLVASIQNDPSAEVRRAAMLNLINDNNTRPYILERARDVNIVNRRLVYSRILKSMGRKCFDDIEPHIFDQLIEWGLEDRELSVRNACKRLIAHDWLNALDGDLIELLEKLDVSRSSVCVKAIEALFQSRPDILSKIKFPESIWKDFTVEIAFLFRAIYLYCLDNNITEMLEENFPEASKLSEHLNHYILLRYHHNDISNDSQSHFDYNTLEFIIEQLSIAAERYDYSDEVGRRSMLTVVRNMLALTTLSEPLIKIGIRVMKSLSINEKDFVTMAIEIINDIRDDDIEKQEQEEKIKSKKINRRNETSVDEEDENGTHNDEVNEDEEDDNISSFHSAVENLVQGNGNVSESDIINNLPPEKEASSATIVLCLTRSSYMLELVNTPLTENILIASLMDTLITPAVRNTAPNIRELGVKNLGLCCLLDVKLAIDNMYILGMCVSKGNASLKYIALQVIVDIFSVHGNTVVDGEGKVDSISLHKIFYKVLKNNGLPECQVIAAEGLCKLFLADVFTDDDLFETLVLSYFSPINSSNEALVQAFAFCIPVYCFSHPAHQQRMSRTAADILLRLCVLWDDLQSSVIPEVDREAMLKPNIIFQQLLFWTDPRNLVNQTGSTKKDTVQLTFLIDVLKIYAQIEKKEIKKMIITNINAIFLSSEQDYSTLKELLEYSDDIAENDNLDNVSKNALDKLRNNLNSLIEEINERSETQTKDENNTANDQYSSILGNSFNKSSNDTIEHAADITDGNNTELTKTTVNISAVDNTTEQSNSRKRTRSEAEQIDTSKNLENMSIQDTSTVAKNVSFVLPDEKSDAMSIDEEDKDSESFSEVC

target: T1, Smc4-Q1377A, 3xStrepTagII-tagged (S. cerevisiae) (UniProt Q12267); assay: tandem affinity co-purification (Ni-NTA, Strep-Trap) + SEC; five condensin subunits co-overexpressed in yeast; extract in 500 mM NaCl, 10 mM Tris-HCl pH 8.0, 10% glycerol; Ni-NTA (His tags on Brn1 and Ycg1), then Strep-Trap HP (3xStrepTagII on Smc4), then Superose 6 10/300 in 200 mM NaCl, 50 mM Tris-HCl pH 8.0; subunits seen by SDS-PAGE and Coomassie staining
T1 sequence: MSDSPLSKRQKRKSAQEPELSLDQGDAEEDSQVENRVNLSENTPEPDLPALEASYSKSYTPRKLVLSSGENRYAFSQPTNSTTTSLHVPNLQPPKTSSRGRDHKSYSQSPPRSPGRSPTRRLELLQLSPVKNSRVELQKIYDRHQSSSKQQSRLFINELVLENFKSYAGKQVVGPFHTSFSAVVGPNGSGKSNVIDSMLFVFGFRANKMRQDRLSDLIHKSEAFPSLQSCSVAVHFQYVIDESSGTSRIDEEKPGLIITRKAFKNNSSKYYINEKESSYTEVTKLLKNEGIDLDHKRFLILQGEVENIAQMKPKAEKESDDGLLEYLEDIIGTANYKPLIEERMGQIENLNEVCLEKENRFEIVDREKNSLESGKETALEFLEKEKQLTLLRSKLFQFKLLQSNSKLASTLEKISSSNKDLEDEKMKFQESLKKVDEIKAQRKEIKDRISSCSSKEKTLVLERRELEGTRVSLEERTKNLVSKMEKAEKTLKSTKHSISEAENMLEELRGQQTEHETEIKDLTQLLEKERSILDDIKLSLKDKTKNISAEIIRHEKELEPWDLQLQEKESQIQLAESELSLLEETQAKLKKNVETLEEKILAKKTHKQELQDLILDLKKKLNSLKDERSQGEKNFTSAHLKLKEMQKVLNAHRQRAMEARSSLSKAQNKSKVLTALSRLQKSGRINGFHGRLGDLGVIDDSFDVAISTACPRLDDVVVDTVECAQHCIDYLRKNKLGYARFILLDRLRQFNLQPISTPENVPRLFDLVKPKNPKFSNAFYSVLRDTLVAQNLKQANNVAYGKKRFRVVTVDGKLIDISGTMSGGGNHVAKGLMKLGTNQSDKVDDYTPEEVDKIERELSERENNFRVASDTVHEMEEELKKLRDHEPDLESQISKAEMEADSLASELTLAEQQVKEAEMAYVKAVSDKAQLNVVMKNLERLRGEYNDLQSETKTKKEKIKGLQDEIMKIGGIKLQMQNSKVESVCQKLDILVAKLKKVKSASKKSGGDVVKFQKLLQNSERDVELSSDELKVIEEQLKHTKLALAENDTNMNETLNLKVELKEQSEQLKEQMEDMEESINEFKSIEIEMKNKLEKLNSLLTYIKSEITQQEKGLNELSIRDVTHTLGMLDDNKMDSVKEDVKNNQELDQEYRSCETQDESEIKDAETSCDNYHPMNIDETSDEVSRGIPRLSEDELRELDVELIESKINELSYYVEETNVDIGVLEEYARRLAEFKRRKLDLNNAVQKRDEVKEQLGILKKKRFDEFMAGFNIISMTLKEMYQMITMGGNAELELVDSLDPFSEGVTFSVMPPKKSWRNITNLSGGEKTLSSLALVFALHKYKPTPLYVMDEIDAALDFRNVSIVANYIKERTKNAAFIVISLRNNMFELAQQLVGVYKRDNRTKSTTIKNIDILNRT

binding, binds:
B1, B2, B3, B4
